These results are taken from patent publication US8841077B2, “Biomarkers for amyotrophic lateral sclerosis and methods using the same” (Massachusetts General Hospital, priority 2006, dated 2014).

Counter-ions that a name gives are not always drawn.

The nature of this data set: Metabolomic profiling (GC-MS/LC-MS) of CSF samples, ALS subjects vs control subjects (Example 1; Tables 3, 4). As to conditions: CSF. The format is in vivo, human.
Setting [1] is: ALS mean as compared to the control mean.
The mark [2] stands for this setting: mean in ALS samples as compared to control samples.
The mark [3] stands for this setting: ALS mean as compared to control mean, T-tests of ALS vs. Controls.
[4] abbreviates: mean in ALS samples vs control samples, T-tests.

`NC(=O)NCCC[C@H](N)C(=O)O`: the “% change in ALS” value under setting [1] stood at 267%. Under setting [2], the “Increase (+) or Decrease (−) in ALS” value is on record as “+”.

With `O=P(O)(O)OC(CO)CO`, the “% change in ALS” value under setting [1] amounted to 16%. The “Increase (+) or Decrease (−) in ALS” value under setting [2] was “+”.

Turning to `O=C(O)C(=O)O`, the “% change in ALS” value under setting [1] was determined as 8%. Also, the “Increase (+) or Decrease (−) in ALS” value under setting [2] is on record as “+”.

As for `O=C(O)C1CCCCN1` (racemic) [DL-pipecolic acid - 35, DL-pipecolic acid], the “% change in ALS” value is 108% under setting [3] and 108% under setting [1]. Besides, the “Increase (+) or Decrease (−) in ALS” value runs as follows: under setting [2], “+”; under setting [4], “+”.

In the case of `O=C(O)[C@@H]1C[C@@H](O)CN1` (relative stereo) [trans-4-hydroxyproline - 35, trans-4-hydroxyproline], the “% change in ALS” value worked out at 19% under setting [3] and 19% under setting [1]. Also, the “Increase (+) or Decrease (−) in ALS” value reads like this: under setting [2], “+”; under setting [4], “+”.

Take `O=c1[nH]cnc2nc[nH]c12` [1-7-dihydro-6h-purin-6-one - 35, 1-7-dihydro-6h-purin-6-one]: the “% change in ALS” value was −13% under setting [3] and −13% under setting [1]. Besides, the “Increase (+) or Decrease (−) in ALS” value was “−” under setting [2] and “−” under setting [4].

For `CCCCCCCCCCCCCCCCO` [1-Hexadecanol - 9], the “% change in ALS” value under setting [1] is 3%. For the same compound, under setting [2], the “Increase (+) or Decrease (−) in ALS” value was “+”.

On to `CCCCCCCCCCCCCCCCO` [1-Hexadecanol-9, 1-Hexadecanol], for which the “% change in ALS” value under setting [3] stood at 3%. Also, the “Increase (+) or Decrease (−) in ALS” value under setting [4] is reported as “+”.

Regarding `CCC(N)C(=O)O` (stereo not shown) [2-amino-butyrate - 9, 2-amino-butyrate], the “% change in ALS” value by setting is: under setting [3], −65%; under setting [1], −65%. The “Increase (+) or Decrease (−) in ALS” value by setting is: under setting [2], “−”; under setting [4], “−”.

In the case of `NC(CCCCC(=O)O)C(=O)O` (stereo not shown) [2-amino-heptanedioic acid - 9, 2-amino-heptanedioic acid], the “% change in ALS” value by setting is: under setting [3], 37%; under setting [1], 37%. Besides, the “Increase (+) or Decrease (−) in ALS” value is given as “+” under setting [2] and “+” under setting [4].

With `CCC(N)C(=O)O` (stereo not shown) [2-aminobutanoic acid - 9, 2-aminobutanoic acid], the “% change in ALS” value is given as −4% under setting [3] and −4% under setting [1]. Further, the “Increase (+) or Decrease (−) in ALS” value under setting [2] is “−” and the “Increase (+) or Decrease (−) in ALS” value under setting [4] was “−”.

Take `O=CC[C@H](O)[C@H](O)CO` [2-deoxy-D-ribose - 35]: the “% change in ALS” value under setting [1] came to 12%. Moreover, the “Increase (+) or Decrease (−) in ALS” value under setting [2] is on record as “+”.

As to `O=CC[C@H](O)[C@H](O)CO` [2-deoxy-D-ribose-35, 2-deoxy-D-ribose], the “% change in ALS” value under setting [3] was 12%. In addition, under setting [4], the “Increase (+) or Decrease (−) in ALS” value is given as “+”.

Regarding `Nc1ncnc2c1ncn2C1CC(O)C(CO)O1` (stereo not shown) [2-deoxyadenosine - 35, 2-deoxyadenosine], the “% change in ALS” value is, setting by setting: under setting [3], 10%; under setting [1], 10%. Also, the “Increase (+) or Decrease (−) in ALS” value is, setting by setting: under setting [2], “+”; under setting [4], “+”.

With `Nc1nc2c(ncn2[C@H]2C[C@H](O)[C@@H](CO)O2)c(=O)[nH]1` [2-deoxyguanosine - 35, 2-deoxyguanosine], the “% change in ALS” value is 8% under setting [3] and 8% under setting [1]. In addition, the “Increase (+) or Decrease (−) in ALS” value under setting [2] is listed as “+” and the “Increase (+) or Decrease (−) in ALS” value under setting [4] was “+”.

With `CCCCC(CC)C(=O)O` (stereo not shown) [2-ethylhexanoic acid - 9, 2-ethylhexanoic acid], the “% change in ALS” value by setting is: under setting [3], 82%; under setting [1], 82%. The “Increase (+) or Decrease (−) in ALS” value was “+” under setting [2] and “+” under setting [4].

For `CC(CN)C(=O)O` (stereo not shown) [3-amino-isobutyrate - 9, 3-amino-isobutyrate], the “% change in ALS” value runs as follows: under setting [3], 31%; under setting [1], 31%. Also, the “Increase (+) or Decrease (−) in ALS” value is, setting by setting: under setting [2], “+”; under setting [4], “+”.

As for `CC(O)(CC(=O)O)CC(=O)O` [3-hydroxy-3-methylglutarate - 35, 3-hydroxy-3-methylglutarate], the “% change in ALS” value is, setting by setting: under setting [3], 1%; under setting [1], 1%. In addition, the “Increase (+) or Decrease (−) in ALS” value by setting is: under setting [2], “+”; under setting [4], “+”.

For the compound `N[C@@H](Cc1ccc(O)c([N+](=O)[O-])c1)C(=O)O` [3-nitro-L-tyrosine - 35, 3-nitro-L-tyrosine], the “% change in ALS” value by setting is: under setting [3], 10%; under setting [1], 10%. In addition, the “Increase (+) or Decrease (−) in ALS” value is “+” under setting [2] and “+” under setting [4].

`O=C(O)[C@H](O)COP(=O)(O)O` [3-phospho-d-glycerate - 9, 3-phospho-d-glycerate]: the “% change in ALS” value is listed as −3% under setting [3] and −3% under setting [1]. Also, the “Increase (+) or Decrease (−) in ALS” value under setting [2] is recorded as “−” and the “Increase (+) or Decrease (−) in ALS” value under setting [4] is “−”.

`O=C(O)[C@H](O)COP(=O)(O)O` [3-phospho-d-glycerate - 35, 3-phospho-d-glycerate]: the “% change in ALS” value worked out at 0% under setting [3] and 0% under setting [1].

For `N[C@@H](COP(=O)(O)O)C(=O)O` [3-phospho-l-serine - 9, 3-phospho-l-serine], the “% change in ALS” value is 0% under setting [3] and 0% under setting [1].

Regarding `CC(=O)NCCCC(=O)O` [4-acetamidobutyric acid - 35, 4-acetamidobutyric acid], the “% change in ALS” value is −4% under setting [3] and −4% under setting [1]. For the same compound, the “Increase (+) or Decrease (−) in ALS” value is “−” under setting [2] and “−” under setting [4].

On to `CC(=O)Nc1ccc(OS(=O)(=O)O)cc1` [4-acetominophen sulfate], for which the “% change in ALS” value under setting [3] is 5% and the “% change in ALS” value under setting [1] is listed as 5%. The “Increase (+) or Decrease (−) in ALS” value under setting [2] is listed as “+” and the “Increase (+) or Decrease (−) in ALS” value under setting [4] is “+”.

Take `COc1cc(C(O)C(=O)O)ccc1O` (stereo not shown) [4-hydroxy-3-methoxymandelate - 35, 4-hydroxy-3-methoxymandelate]: the “% change in ALS” value reads like this: under setting [3], −6%; under setting [1], −6%. Besides, the “Increase (+) or Decrease (−) in ALS” value reads like this: under setting [2], “−”; under setting [4], “−”.

For the compound `O=C1CCNC(=O)N1` [5-6-dihydrouracil - 35, 5-6-dihydrouracil], the “% change in ALS” value is 7% under setting [3] and 7% under setting [1]. Besides, the “Increase (+) or Decrease (−) in ALS” value runs as follows: under setting [2], “+”; under setting [4], “+”.

`CSC[C@H]1O[C@@H](n2cnc3c(N)ncnc32)[C@H](O)[C@@H]1O` [5-S-methyl-5-thioadenosine - 35, 5-S-methyl-5-thioadenosine]: the “% change in ALS” value under setting [3] was −7% and the “% change in ALS” value under setting [1] is reported as −7%. For the same compound, the “Increase (+) or Decrease (−) in ALS” value reads like this: under setting [2], “−”; under setting [4], “−”.

In the case of `O=C(O)Cc1c[nH]c2ccc(O)cc12` [5-hydroxy-1H-indole-3-acetic acid - 9, 5-hydroxy-1H-indole-3-acetic acid], the “% change in ALS” value runs as follows: under setting [3], −15%; under setting [1], −15%. Also, the “Increase (+) or Decrease (−) in ALS” value is reported as “−” under setting [2] and “−” under setting [4].
